Values of other authors, collected in patent publication US8624079B2, “Knockin mouse with a disruption in a PXR gene expressing human PXR” (ITI Scotland Limited, priority 2007, dated 2014).
For at least one compound, name, drawing or mass did not settle the structure.

System: components of drug metabolism pathways
Details: inducer of components of drug metabolism pathways; species in which it is known to act more potently; cited from earlier work

| SMILES | More potent in: |
| --- | --- |
| CO[C@H]1/C=C/O[C@@]2(C)Oc3c(C)c(O)c4c(O)c(c(/C=N/N5CCN(C)CC5)c(O)c4c3C2=O)NC(=O)/C(C)=C\C=C\[C@H](C)[C@H](O)[C@@H](C)[C@@H](O)[C@@H](C)[C@H](OC(C)=O)[C@@H]1C [rifampicin] | human |
| C[C@@H]1C[C@H]2[C@@H]3CCC4=CC(=O)C=C[C@]4(C)[C@@]3(F)[C@@H](O)C[C@]2(C)[C@@]1(O)C(=O)CO [dexamethasone] | mouse |
